Data as given in patent publication US20210269549A1, “ANTI-SAS1B ANTIBODIES, ASSOCIATED METHODS OF USE, AND COMPOSITIONS AND METHODS FOR DETECTING AND TREATING CANCER” (UNIVERSITY OF VIRGINIA PATENT FOUNDATION, priority 2015, published 2021).
Residue numbers refer to the chain shown, from its start. Several values for one entry are separate records, joined by “and”; a condition that tells them apart may be missing. Equal entries are not always repeated.

B1: SB4: mouse anti-human SAS1B monoclonal antibody, IgG2a; VH SEQ ID NO:16, VL SEQ ID NO:17 (antibody, listed as Mus musculus, V domains shown)
VH: EVQLQQSGPELVKPGSSVKISCKPSGYTFTDYNMVWMKQSHGKSLEWIGAINPNNGGTTYNQKFKGKATLTVDKSSSTAYMELRSLTSEDSAVYYCAPNWDWFAYWGQGTLVTVSA
VL: DVLMTQTPLSLPVSLGDQASISCRSSQSILHSNGNTYLEWYLQKPGQSPKLLIYKVSNRFSGVPDRFSGSGSGTDFTLKISRVEAEDLGVYYCFQGSHVPFTFGSGTKLEIK
B2: SB5: mouse anti-human SAS1B monoclonal antibody, IgG2b; VH SEQ ID NO:16, VL SEQ ID NO:18 (antibody, listed as Mus musculus, V domains shown)
VH: B1 VH
VL: B1 VL with T7I
B3: SB2: mouse anti-human SAS1B monoclonal antibody, IgG2b; VH SEQ ID NO:14, VL SEQ ID NO:15 (antibody, listed as Mus musculus, V domains shown)
VH: B1 VH with P24A, M37V, I51V, T59S, A97V
VL: B1 VL with I29L, L30V, K50N

Tested on: SAS1B
Test: Western blot of uterine cancer cell line (SNU539) extract
Type: binding, human
Conditions: SNU539 RIPA extract, 42 ug total protein per lane, mAbs at 3 ug/ml

Row | Molecule | Band identified on western blot
1 | B1 | ~43 kD
2 | B2 | ~43 kD
3 | B3 | ~43 kD and ~52 kD and ~50 kD
